For at least one entry, the source does not settle the construct or the ends of the probe.

The data set has as its system MBP-OsNLP4 (Oryza sativa (rice)). Put plainly: EMSA. As to conditions: competition with 5x, 10x, 50x unlabeled probe. Background: Mobility shift assays separate free from complexed probe on a gel.

In the case of “TCATGTCTCATCCTCACTAAGGTTGTTTTTTTTGGGACAAATGGA (double strand) [OsMADS27 promoter cis1 probe (NRE)]”, the binding result was “binds”.

These data come from doi:10.1101/2022.07.08.499223.
